# In PubChem BioAssay AID540303 (National Center for Advancing Translational Sciences (NCATS), 2011):
# In all, about 330,000 compounds went through this assay and about 1,000 (0.3%) were called active. Inconclusive results, whose numbers are uncertain, are shown with a selection of clear calls. The call rests on the fitted dose curve; in most records, active means well fitted inhibition curve with a large enough effect; inconclusive means small, poorly fitted or top-dose-only effect; inactive means no such curve, though single readings can be large or run the other way; tested in mouse RAW 264.7 cells. Where the call is inconclusive, the potency comes from a doubtful curve fit.
# Assay: qHTS for Inhibitors of Cell Surface uPA Generation; further: nearly all actives have a fitted effect of over 55% in size
# Settings: cell surface uPA generation assay; series mostly up to 38.3 µM
# In short: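 ATP-Lite luminescence in RAW 264.7 cells after 24 h of exposure to compound, tested up to 38.3 uM final in 1:5 steps. Raised ATP reflects inhibition of uPA-dependent LF delivery to the cytoplasm.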
# Potency means the concentration at half of the fitted maximal effect.
row,SMILES,Potency
1,CN(C)S(=O)(=O)c1ccc(Cl)c(NC(=O)CN2C(=O)NC(C)(C3CC3)C2=O)c1 (configuration not stated),active: 5.62 µM
2,O=C(N/N=C/c1ccco1)c1cc2ccccc2o1,"inconclusive: 28.2 µM [inhibitor, single point]"
3,CC(C)COc1ccc(C(=O)N/N=C/c2ccoc2)cc1,"inconclusive: 10 µM [inhibitor, single point]"
4,CC(C)C12CN3CCN(CC(C3)/C1=N\NC(=O)Nc1ccccc1)C2,inactive
5,N#Cc1c(-c2ccccc2)cc(-c2ccc(O)cc2)nc1N,"inconclusive: 0.0112 µM [inhibitor, full curve, poor fit]"
6,COc1cccc(Cn2nnc(C(=O)Nc3cc(Cl)ccc3OC)c2N)c1,"inconclusive: 2.82 µM [inhibitor, partial curve, poor fit]"
7,CCOc1cc(/C=N/Nc2cc(C)nc(-n3nc(C)cc3C)n2)ccc1O,"inconclusive: 5.62 µM [inhibitor, partial curve, poor fit]"
8,Cc1csc(NC(=O)c2ccc3ccccc3n2)n1,inactive
9,CCOc1ccc(/C=C2\SC(=S)N(CC(=O)NCCCN3CCOCC3)C2=O)cc1,inactive
10,CCOc1ccc2nc(N3CCCC(C(=O)NCC4CCCO4)C3)sc2c1 (configuration not stated),"inconclusive: 5.01 µM [inhibitor, partial curve, poor fit]"
11,CCSc1nc2ccccc2n1Cc1ccccc1F,inactive
12,CN(CC(=O)N1CCc2ccccc21)S(=O)(=O)c1cccs1,inactive
13,COc1cc(OC)c(C(=O)C=Cc2ccc(OC)c(OC)c2)c(OC)c1,inactive
14,Cc1cc(C)nc(Sc2ncnc(N)c2[N+](=O)[O-])n1,"inconclusive: 5.01 µM [inhibitor, partial curve, poor fit]"
15,O=C(CCCCn1c(=O)c2ccccc2n(Cc2ccc(F)cc2)c1=O)NCc1ccco1,inactive
16,CC(C)(C)OC(=O)NCc1ccc(CNC(=O)c2nc[nH]c2C(=O)N2CCN(C(=O)OC(C)(C)C)CC2)cc1,inactive
17,COc1ccc(CNCC(=O)Nc2ccccc2-n2cccc2)cc1,"inconclusive: 7.94 µM [inhibitor, partial curve, poor fit]"
18,CC(C)(C)c1cc(CP(=O)(c2ccccc2)c2ccccc2)cc(C(C)(C)C)c1O,"inconclusive: 28.2 µM [inhibitor, single point]"
19,CCOC(=O)C1Nc2ccccc2C2c3ccccc3CC12 (configuration not stated),"inconclusive: 5.62 µM [inhibitor, partial curve, poor fit]"
20,CCCCc1nc2cc(C(=O)N3CCCCC3CCNC(C)=O)ccc2o1 (configuration not stated),inactive
21,CCOC(=O)c1sc(=S)n(-c2ccccc2)c1C,inactive
22,Cc1ccc(-c2nc3cnccn3c2Nc2c(C)cccc2C)o1,"inconclusive: 12.6 µM [inhibitor, partial curve, poor fit]"
23,O=C(Nc1cccnc1)c1ccco1,inactive
24,C#CC(=O)N(c1cccc(OC)c1)C(C(=O)NC1CCCC1)c1cccs1 (configuration not stated),"inconclusive: 0.794 µM [inhibitor, full curve]"

row,SMILES,Potency
1,N#CC(C#N)=C(N)/C(C#N)=C/c1cc(O)c(O)c(O)c1,"inconclusive: 12.6 µM [inhibitor, single point]"
2,Cc1ccc(OCc2cc(C(=O)NCC3COCCO3)no2)cc1C (configuration not stated),"inconclusive: 11.2 µM [inhibitor, partial curve, poor fit]"
3,CCNc1nnc(-c2ccncc2)s1,inactive
4,O=C(c1ccc(F)cc1)C1CCN(C(=S)Nc2ccccc2Cl)CC1,"inconclusive: 5.62 µM [inhibitor, partial curve, poor fit]"
5,Cc1ccc(CN2C(=O)C(=O)c3cc(C)ccc32)cc1,"inconclusive: 6.31 µM [inhibitor, partial curve, poor fit]"
6,Clc1ccc(SCc2cc(N3CCOCC3)nc(-c3ccccn3)n2)cc1,inactive
7,Cn1c(CCN2CCCC2)nc2cc(NS(=O)(=O)c3ccc(Cl)cc3)ccc21,"inconclusive: 8.91 µM [inhibitor, single point]"
8,Cc1ccc(-c2[nH]n3c(=O)c4c(nc3c2C)CCCC4)cc1,inactive
9,Cc1cc2nc(CSc3ccc(Cl)cc3)cc(=O)n2[nH]1,inactive
10,Cc1ccc(-c2csc(NCCn3c(C(F)(F)F)nc4ccccc43)n2)cc1,"inconclusive: 12.6 µM [inhibitor, single point]"
11,Cc1ccc(C)c(OCc2cc(C(=O)N3C[C@@H](C)O[C@@H](C)C3)no2)c1,inactive
12,CC(=O)C[C@H]1c2cc(C(F)(F)F)ccc2S(=O)(=O)N1C1CCCCC1,"inconclusive: 11.2 µM [inhibitor, single point]"
13,CC(C)C[C@H]1CN=C(Nc2ccccc2)N1CCC1CCCC1,"inconclusive: 11.2 µM [inhibitor, partial curve, poor fit]"
14,CN(Cc1ccccc1)c1nc2c(c(=O)[nH]c(=O)n2C)n1Cc1ccccc1F,"inconclusive: 7.08 µM [inhibitor, partial curve, poor fit]"
15,CCOC(=O)C1CCN(C2=C(NS(=O)(=O)c3ccc(Cl)cc3)C(=O)c3ccccc3C2=O)CC1,inactive
16,CNC(=O)[C@H]1O[C@@H](n2cnc3c(NCc4cccc(I)c4)nc(Cl)nc32)[C@H](O)[C@@H]1O,"inconclusive: 12.6 µM [inhibitor, single point]"
17,CC(C)c1ccc2[nH]c(O)c(N=NC(=S)NCCc3ccccc3)c2c1,"inconclusive: 12.6 µM [inhibitor, single point]"
18,Cc1ccc(C)c(OCCCC(=O)NC2CCCCC2)c1,inactive
19,O=C(COc1ccccc1)NCC(=O)N/N=C/c1cc(Br)ccc1OCc1ccccc1,inactive
20,CCCc1cc2c(c(NC(C)=O)n1)c(=O)oc1ccccc12,inactive
21,Cc1ccc(S(=O)(=O)N2CCCCC2)cc1NC(=O)Cn1ncc(Cl)c(Cl)c1=O,"inconclusive: 15.8 µM [inhibitor, partial curve, poor fit]"
22,CC1(NC(=O)c2ccccc2)CCN(CCCc2ccccc2)C1=O (configuration not stated),"inconclusive: 8.91 µM [inhibitor, single point]"
23,CN1C(=S)N(c2cccnc2)C(=O)/C1=C\c1ccc(C(C)(C)C)cc1,"inconclusive: 12.6 µM [inhibitor, single point]"
